System: LPS-induced proinflammatory factor nitric oxide (NO) in immunocompetent BV-2 cells
Test: NO assay: inhibition of LPS-induced NO overproduction in BV-2 cells
Format: cell-based
Settings: for Therapeutic index (TI): TI = IC50 of cellular viability/IC50 of NO
Procedure: BV-2 cells were seeded at a density of 5×10^4 cells per milliliter in 96-well plates. After 24 h incubation, the media was removed and changed to DMEM without FBS and penicillin-streptomycin. LPS (200 ng/mL) and different concentrations of compounds were added. After 24 h treatment, 100 μL of media was transferred to flat black 96-well micro fluor plates, and then, 10 μL of 0.05 mg/mL 2,3-diaminonaphthalene was added and incubated in the dark for 15 min. 5 μL of NaOH (3 M) was subsequently added to each well to quench the reaction. NO inhibition ratio was analyzed by a SYNERGY H1 Microplate Reader (BioTek Instruments, Carlsbad, CA, USA) with excitation at 360 nm and emission at 430 nm. The fluorescence value of the LPS-treated group was set as 100%.

| SMILES | Therapeutic index (TI) | other results |
| --- | --- | --- |
| C=C(C)[C@@H]1CCC(C)=C[C@H]1c1c(O)cc(C(C)n2nccn2)cc1O (stereo partly drawn) [CIAC001, (1′R,2′R)-4-(1-(2H-1,2,3-Triazol-2-yl)ethyl)-5′-methyl-2′-(prop-1-en-2-yl)-1′,2′,3′,4′-tetrahydro-[1,1′-biphenyl]-2,6-diol] |  | Therapeutic index (TI) (listed as 19a (CIAC001)): 23.1 ± 6.6; fold improvement of therapeutic index relative to CBD (vs CBD): ~ 30 fold; fold increased anti-neuroinflammatory activity compared to CBD (vs CBD): 4.9 fold; fold improvement of therapeutic index relative to CBD (vs CBD, listed as 19a (CIAC001)): about 30 fold |
| C=C(C)[C@@H]1CCC(C)=C[C@H]1c1c(O)cc(CCCCC)cc1OCC [Compound 2a, (1′ R,2′R)-6-Ethoxy-5′-methyl-4-pentyl-2′-(prop-1-en-2-yl)-1′,2′,3′,4′-tetrahydro-[1,1′-biphenyl]-2-ol] | 1.1 ± 0.1 |  |
| C=CCOc1cc(CCCCC)cc(O)c1[C@@H]1C=C(C)CC[C@H]1C(=C)C [Compound 4a, (1′R,2′R)-6-(Allyloxy)-5′-methyl-4-pentyl-2′-(prop-1-en-2-yl)-1′,2′,3′,4′-tetrahydro-[1,1′-biphenyl]-2-ol] | 0.7 ± 0.1 |  |
| C#CCOc1cc(CCCCC)cc(O)c1[C@@H]1C=C(C)CC[C@H]1C(=C)C [Compound 5a, (1′R,2′R)-5′-Methyl-4-pentyl-2′-(prop-1-en-2-yl)-6-(prop-2-yn-1-yloxy)-1′,2′,3′,4′-tetrahydro-[1,1′-biphenyl]-2-ol] | 1.2 ± 0.4 |  |
| C=C(C)[C@@H]1CCC(C)=C[C@H]1c1c(O)cc(CCC)cc1O [Compound 12b, (1′R,2′R)-5′-Methyl-2′-(prop-1-en-2-yl)-4-propyl-1′,2′,3′,4′-tetra-hydro-[1,1′-biphenyl]-2,6-diol, reference compound] | 3.5 ± 2.0 |  |
| C=C(C)[C@@H]1CCC(C)=C[C@H]1c1c(O)cc(CCCC)cc1O [Compound 12c] | 2.2 ± 1.6 |  |
| C=C(C)[C@@H]1CCC(C)=C[C@H]1c1c(O)cc(CCCCCC)cc1O [Compound 12e, (1′R,2′R)-4-Hexyl-5′-methyl-2′-(prop-1-en-2-yl)-1′,2′,3′,4′-tetra-hydro-[1,1′-biphenyl]-2,6-diol] | 9.0 ± 1.9 |  |
| C=C(C)[C@@H]1CCC(C)=C[C@H]1c1c(O)cc(CCCCCCC)cc1O [Compound 12f, (1′R,2′R)-4-Heptyl-5′-methyl-2′-(prop-1-en-2-yl)-1′,2′,3′,4′-tetra-hydro-[1,1′-biphenyl]-2,6-diol] | 0.3 ± 0.1 |  |
| C=C(C)[C@@H]1CCC(C)=C[C@H]1c1c(O)cc(CCCCCCCC)cc1O [Compound 12g, (1′R,2′R)-5′-Methyl-4-octyl-2′-(prop-1-en-2-yl)-1′,2′,3′,4′-tetra-hydro-[1,1′-biphenyl]-2,6-diol] | 0.2 ± 0.1 |  |
| C=C(C)[C@@H]1CCC(C)=C[C@H]1c1c(O)cc(C(C)n2ccnc2)cc1O (stereo partly drawn) [Compound 19c, (1′R,2′R)-4-(1-(1H-Imidazole-1-yl)ethyl)-5′-methyl-2′-(prop-1-en-2-yl)-1′,2′,3′,4′-tetrahydro-[1,1′-biphenyl]-2,6-diol] | 7.4 ± 1.2 |  |

Reference: patent publication US20260242320A1, “USE OF CANNABIDIOL DERIVATIVE IN PREPARATION OF MEDICAMENT” (priority 2023, published 2026)
